Reference: paper PMC5825159

Biological target: T1, ZEB1-flag (UniProt Q64318)
T1 sequence: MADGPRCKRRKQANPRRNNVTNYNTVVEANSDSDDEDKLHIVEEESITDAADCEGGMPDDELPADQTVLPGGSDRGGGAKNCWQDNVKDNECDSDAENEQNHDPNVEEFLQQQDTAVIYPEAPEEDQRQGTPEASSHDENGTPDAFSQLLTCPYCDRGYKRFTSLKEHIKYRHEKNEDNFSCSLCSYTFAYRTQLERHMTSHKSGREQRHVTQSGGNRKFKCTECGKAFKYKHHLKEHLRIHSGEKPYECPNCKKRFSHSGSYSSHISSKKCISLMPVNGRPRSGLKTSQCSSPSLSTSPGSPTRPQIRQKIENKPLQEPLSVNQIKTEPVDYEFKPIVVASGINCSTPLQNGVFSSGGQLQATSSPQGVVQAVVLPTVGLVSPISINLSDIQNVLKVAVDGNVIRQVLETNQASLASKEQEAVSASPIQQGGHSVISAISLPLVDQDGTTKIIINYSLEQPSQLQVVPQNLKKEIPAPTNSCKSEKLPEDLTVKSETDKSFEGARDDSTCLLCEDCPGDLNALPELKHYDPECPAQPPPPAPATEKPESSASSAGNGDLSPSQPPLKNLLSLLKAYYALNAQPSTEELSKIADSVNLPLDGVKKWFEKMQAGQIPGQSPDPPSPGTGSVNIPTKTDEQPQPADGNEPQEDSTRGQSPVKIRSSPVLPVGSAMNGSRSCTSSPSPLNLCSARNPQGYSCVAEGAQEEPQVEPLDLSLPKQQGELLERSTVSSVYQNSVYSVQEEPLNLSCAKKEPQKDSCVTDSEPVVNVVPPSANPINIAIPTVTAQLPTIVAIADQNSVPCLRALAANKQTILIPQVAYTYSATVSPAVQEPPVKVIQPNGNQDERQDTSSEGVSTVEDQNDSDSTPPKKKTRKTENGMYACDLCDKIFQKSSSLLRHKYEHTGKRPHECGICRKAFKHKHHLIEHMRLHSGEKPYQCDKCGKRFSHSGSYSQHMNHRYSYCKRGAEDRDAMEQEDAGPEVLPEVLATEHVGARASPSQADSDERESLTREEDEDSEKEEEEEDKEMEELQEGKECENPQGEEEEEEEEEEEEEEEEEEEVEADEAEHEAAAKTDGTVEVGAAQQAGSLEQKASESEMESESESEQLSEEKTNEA
Assay: co-IP; HEK293 cells co-transfected with 5 ug of each expression vector; lysate incubated with Flag antibody bound beads 2h at 4°C; eluted with 3xFlag peptide; Myc-tagged SOX2 forms analysed; no DNase I

Substance: Myc-tagged SOX2 C-terminus (domain or fragment)
- binding: binds

No constants are given. Whether binding was seen depends on the method and setting. In cells and extracts the contact can be indirect. Binding can be weak; no strength is given. Where a sequence is shown, tags or fusion partners need not be part of it.
